Source: paper PMC5347724
Results are given in words; binding and its absence hold for the method and conditions named. In cells and extracts the contact can be indirect. Some binding calls cover weakened binding; strength is not graded here.

The chains behind the UniProt entries cited, without tags or fusion partners.
UniProt Q15561: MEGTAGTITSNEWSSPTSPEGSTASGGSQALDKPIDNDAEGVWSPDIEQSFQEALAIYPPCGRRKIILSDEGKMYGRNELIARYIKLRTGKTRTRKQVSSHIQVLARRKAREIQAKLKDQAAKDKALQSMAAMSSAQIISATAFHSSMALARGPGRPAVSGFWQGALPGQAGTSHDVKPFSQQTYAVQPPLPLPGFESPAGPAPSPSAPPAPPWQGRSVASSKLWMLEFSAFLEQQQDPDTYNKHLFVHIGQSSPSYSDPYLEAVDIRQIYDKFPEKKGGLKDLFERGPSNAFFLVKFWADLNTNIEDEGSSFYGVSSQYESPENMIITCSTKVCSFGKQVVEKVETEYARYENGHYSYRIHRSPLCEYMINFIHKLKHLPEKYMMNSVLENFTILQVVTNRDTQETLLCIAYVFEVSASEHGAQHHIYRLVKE
UniProt Q9GZV5: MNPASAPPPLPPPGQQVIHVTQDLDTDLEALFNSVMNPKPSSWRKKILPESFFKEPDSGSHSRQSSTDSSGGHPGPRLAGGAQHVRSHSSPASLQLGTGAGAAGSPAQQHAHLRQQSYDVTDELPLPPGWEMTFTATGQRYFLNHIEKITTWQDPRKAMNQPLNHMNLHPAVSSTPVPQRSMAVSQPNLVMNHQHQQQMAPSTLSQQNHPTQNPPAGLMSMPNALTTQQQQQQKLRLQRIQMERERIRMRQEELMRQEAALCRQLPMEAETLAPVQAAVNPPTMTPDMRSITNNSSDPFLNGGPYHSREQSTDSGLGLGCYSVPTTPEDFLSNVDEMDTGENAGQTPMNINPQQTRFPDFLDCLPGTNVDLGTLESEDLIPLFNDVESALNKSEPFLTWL

Target: TEAD4 (human (endogenous in LN229)) (UniProt Q15561)
Experiment: co-IP; LN229 cell extracts precleared with control IgG and Protein A/G plus Agarose; precipitated with antibodies against TAZ or TEAD4 and Protein A/G plus Agarose overnight; washed with PBS; Western blotting

Substance: transcriptional coactivator with PDZ-binding motif (TAZ) (from UniProt Q9GZV5 1-400)
- binding: binds
